Assay results as given in patent US7029846B2 (University of Medicine and Dentistry of New Jersey, priority 2000, dated 2006).

Test: general procedure: Fmoc solid-phase peptide synthesis; standard FastMoc protocols
Conditions: conjugation step

Substance: Acetyl-Tyr-Tat peptide-fluorescein conjugate
- conjugation yield: ˜80%
